# Some of the results follow. Further columns of the screen follow, without active or inactive calls. Most of these compounds were active or inconclusive in the main read-out, so they are no random draw. The note in brackets gives the kind of curve behind each potency; many fits are weak.
# Experiment: qHTS Assay to Find Inhibitors of Chronic Active B-Cell Receptor Signaling
# Details: ABC-DLBCL IkBa-CBG/CBR reporter, luminescence ratio (green luciferase fused to IkBa over red control in TMD8 lymphoma cells), 4 h
# Procedure, shortened: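 Compounds up to 46 uM were incubated four hours with TMD8 cells whose green CBG68 luciferase is fused to IkappaBalpha; red CBR luminescence normalised the signal, and concentration-effect curves were fitted to fusion, red and ratio data.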
# [1] = measured here: CBR red luminescence, cell number
SMILES,AC50 [1],AC50 (measured here: IkBa-CBG green luminescence)
COc1ccc(N2CCN(CC(=O)Nc3nnc(-c4ccccc4)s3)CC2)cc1,"11.6 µM [falling, partial curve]",–
COc1cc(-c2nn3c(C4CCCCC4)nnc3s2)cc(OC)c1OC,"35.5 µM [rising, single point]",–
O=C(CCN1C(=O)/C(=C/c2cccc(Br)c2)SC1=S)Nc1cccnc1,"10 µM [falling, partial curve]",–
O/N=C/c1ccn(-c2ccc(Br)cc2)c1,"0.794 µM [rising, full curve, poor fit]",–
Cc1cc(C)c2nc(NC(=O)CN3C(=O)NC4(CCCC4)C3=O)sc2c1,"20.6 µM [falling, partial curve, poor fit]",–
C=CCn1c(SCC(=O)Nc2c(C)n(C)n(-c3ccccc3)c2=O)nc2sc(C)c(C)c2c1=O,–,"18.4 µM [falling, partial curve, poor fit]"
N/C(=N\OC(=O)c1ccc2ccccc2c1)c1cccc([N+](=O)[O-])c1,"3.26 µM [rising, full curve, poor fit]",–
Nc1ccc(C(=O)c2cccs2)cc1,"2.59 µM [rising, full curve, poor fit]",–
COc1ccc(N2CC(C(=O)O)CC2=O)cc1 (centres undefined),"23.1 µM [rising, partial curve, poor fit]",–
COc1cccc(-c2cc3nc(-c4ccccc4)cc(N4CCCC(O)C4)n3n2)c1 (centres undefined),"17.8 µM [falling, partial curve, poor fit]",–
CC(C)(C)NC(=O)COC(=O)c1ccccc1OCC(=O)Nc1ccc(Br)cc1,"20.6 µM [falling, single point]",–
CCc1cc2c(=O)n(Cc3ccco3)c(SCC(=O)N3CCCc4ccccc43)nc2s1,"7.94 µM [falling, partial curve]",–
CCCCNC(=O)c1cc2c(=O)n3cccc(C)c3nc2n1C,"32.6 µM [rising, single point]",–
O=C(Nc1ccc(N2CCOCC2)cc1)c1cccc2c(Br)cccc12,"10 µM [rising, single point]",–
COc1ccccc1OCCn1cc(/C=C(\C#N)C(=O)NCc2cccs2)c2ccccc21,"29.1 µM [rising, single point]",–
CC1(C)OC(=O)C(=NNc2ccccc2[N+](=O)[O-])C(=O)O1,"15.8 µM [falling, partial curve, poor fit]",–
O=C(/C=C/c1ccnc2ccccc12)c1cccs1,"8.91 µM [falling, partial curve]",–
CN1CCN(c2ccc(CNC(=O)c3cc4ccccc4o3)cc2)CC1,"2.24 µM [falling, full curve]",–
O=c1c2[nH]cnc2n(-c2cccc(Br)c2)c(=O)n1Cc1ccccc1,"0.1 µM [rising, full curve, poor fit]",–
COc1ccccc1CCC(=O)Nc1ccc2c(c1)CN(CCCn1cccn1)CC2,"0.126 µM [falling, full curve, poor fit]",–
O=S(=O)(c1ccccc1)N1CCCC1c1nc2ccccc2s1 (centres undefined),"3.16 µM [falling, partial curve, poor fit]",–
O=C(O)c1ccc(Nc2ncnc3ccccc23)cc1,"7.94 µM [falling, partial curve]",–

# Four entries from above, sorted by heavy-atom count, descending:
SMILES,AC50 [1],AC50 (measured here: IkBa-CBG green luminescence)
Cc1cc(C)c2nc(NC(=O)CN3C(=O)NC4(CCCC4)C3=O)sc2c1,"20.6 µM [falling, partial curve, poor fit]",–
CCCCNC(=O)c1cc2c(=O)n3cccc(C)c3nc2n1C,"32.6 µM [rising, single point]",–
CC1(C)OC(=O)C(=NNc2ccccc2[N+](=O)[O-])C(=O)O1,"15.8 µM [falling, partial curve, poor fit]",–
O=C(O)c1ccc(Nc2ncnc3ccccc23)cc1,"7.94 µM [falling, partial curve]",–

# Later entries.

SMILES,AC50 [1],AC50 (measured here: IkBa-CBG green luminescence)
COc1ccccc1NC(=S)NC(NC(=O)C(C)C)C(Cl)(Cl)Cl (centres undefined),"35.5 µM [falling, single point]",–
Cc1ccc2c(c1)[C@H]1[C@H](CO2)[C@H](c2ccccc2)[C@]2(C)C(=O)N(Cc3ccco3)CC(=O)N12,"23.1 µM [falling, single point]",–
COc1ccc(S(=O)(=O)N(CC(=O)NCc2ccco2)C2CCCCC2)cc1OC,"35.5 µM [falling, single point]",–
O=C(/C=C/c1ccc2c(c1)OCO2)NCCSCc1ccc(Cl)cc1Cl,"35.5 µM [falling, single point]",–
Cc1nnnn1/C(=C\c1ccccc1)C(=O)OCC(=O)N1CC2(C)CC1CC(C)(C)C2 (centres undefined),"1.46 µM [falling, partial curve, poor fit]",–
O=C(CCc1ccccc1)NNC(=O)c1ccccn1,"35.5 µM [falling, single point]",–
COc1cc(/C=N/NC(=O)C(=O)Nc2ccccn2)ccc1O,"23.1 µM [falling, single point]",–
CCn1c(SCC(=O)Nc2nc(-c3ccc(C)cc3)cs2)nnc1-c1ccccc1O,"0.0731 µM [falling, partial curve, poor fit]",–
COc1cccc(/C=N/NC(=O)CC(=O)NCCc2ccc(OC)c(OC)c2)c1,"0.164 µM [rising, full curve, poor fit]",–
C/C(Cn1nnc([N+](=O)[O-])n1)=N\NC(=O)c1cccc(Cl)c1,"11.2 µM [falling, partial curve]",–
CCc1cccc(NC(=O)CN(C)C2=NS(=O)(=O)c3ccccc32)c1,"29.1 µM [rising, single point]",–
CCOC(=O)C1CCN(S(=O)(=O)c2ccc3c(c2)NC(=O)C(C)S3)CC1 (centres undefined),"28.2 µM [falling, single point]",–
NC1=NC(=O)S/C1=C\c1ccc(O)cc1,"20.6 µM [falling, single point]",–
CCCN(CCC)c1ncnc2c1cnn2-c1ccc(OC)cc1,"6.51 µM [rising, single point]",–
O=C(Nc1c2c(nn1-c1ccc(Cl)cc1)CS(=O)(=O)C2)c1cccc(Cl)c1,"11.2 µM [falling, partial curve]",–
N=C1/C(=C/c2cccn2-c2cccc([N+](=O)[O-])c2)C(=O)N=C2SC=CN12,"16.4 µM [rising, partial curve, poor fit]",–
COc1cccc(OC)c1OCC(=O)Nc1ccc(S(=O)(=O)N2CCCC2)cc1,"6.51 µM [falling, partial curve, poor fit]",–
COc1cccc(N=c2oc3cc(O)ccc3cc2C(=O)NCC2CCCO2)c1 (centres undefined),"0.794 µM [falling, full curve]",–
O=C(c1ccccc1)N1CCN(C2c3cccc4cccc(c34)C2NS(=O)(=O)c2ccccc2)CC1 (centres undefined),"0.708 µM [falling, partial curve, poor fit]",–
COc1ccccc1NS(=O)(=O)c1cc(NC(=O)c2ccc(Cl)nc2)ccc1Cl,"23.1 µM [falling, single point]",–
Clc1ccc(-c2cc(CN3CCOCC3)no2)cc1,"14.1 µM [falling, single point]",–
Cc1cc(C)c(NS(=O)(=O)c2ccc3c(c2)NC(=O)CC(=O)N3)c(C)c1,"23.1 µM [rising, single point]",–

SMILES,AC50 [1],AC50 (measured here: IkBa-CBG green luminescence)
O=C(O)c1cccc(Cl)n1,"35.5 µM [rising, partial curve, poor fit]",–
COc1ccc(NC(=O)COC(=O)c2cc([N+](=O)[O-])ccc2N2CCOCC2)cc1,"6.31 µM [rising, single point]",–
COc1cc(CN2CCN(S(=O)(=O)c3ccc(F)cc3)CC2)cc(OC)c1OC,"35.5 µM [rising, partial curve, poor fit]",–
CN(CC(=O)Nc1ccc(N2CCOCC2)cc1)Cc1c(O)ccc2ccccc12,"6.31 µM [falling, partial curve, poor fit]",–
O=C(Nc1cc(C(F)(F)F)ccc1N1CCOCC1)c1c(F)c(F)c(F)c(F)c1F,"0.731 µM [falling, partial curve, poor fit]",–
CC(C)NC(=O)c1cc(-c2cccs2)on1,"14.6 µM [falling, partial curve, poor fit]",–
Cc1cc(C)n2nc(N)c(N=Nc3ccccc3)c2n1,"11.2 µM [falling, partial curve, poor fit]",–
Cc1ccc2nc(SCC(=O)NC(=O)NCc3ccco3)[nH]c2c1,"29.1 µM [falling, single point]",–
CN(CC(=O)Nc1ccccc1F)Cc1cccs1,"4.47 µM [rising, full curve]",–
COc1ccc(CC(=O)N2CCc3cc(OC)c(OC)cc3C2)cc1,"35.5 µM [falling, single point]",–
O=C(Nc1ncc2c(n1)CC(c1ccccc1)CC2=O)c1ccco1 (centres undefined),"3.26 µM [rising, partial curve, poor fit]",–
COc1ccc(Cl)cc1NC(=S)N1CCN(C(=O)c2ccco2)CC1,"11.2 µM [rising, partial curve, poor fit]",–
CC(=O)N(C1CC(C)C(C#N)(C#N)C1(C#N)C#N)N(C)C (centres undefined),"12.6 µM [falling, partial curve, poor fit]",–
CN(C)CCN(C)Cc1c2ccccc2c(CN(C)CCN(C)C)c2ccccc12,"15.8 µM [falling, single point]",–
NS(=O)(=O)c1ccc(N2N=C(c3ccccc3)CC2c2ccccc2Cl)cc1 (centres undefined),"29.1 µM [falling, single point]",–
C/C(=N\NC(=O)C1CC1)c1ccc(Cl)c(Cl)c1,"2.91 µM [rising, partial curve, poor fit]",–
O=C(CCl)Oc1ccc2occ(C(=O)c3cccs3)c2c1,"29.1 µM [falling, single point]",–
Cc1csc(SCC(=O)Nc2ccc(Cl)cn2)n1,"14.1 µM [falling, single point]",–
O=C(NCCc1ccccc1)c1n[nH]c2ccccc12,"3.16 µM [falling, partial curve]",–
CC(OC(=O)Cc1ccccc1[N+](=O)[O-])C(=O)Nc1ccc(Cl)cn1 (centres undefined),"25.9 µM [falling, single point]",–
